This passage reports binding results from patent publication US20180237502A1.

By UniProt entry, the sequences of proteins in these tests, tags left out. Residues count along the entry.
UniProt Q05320, residues 33-637: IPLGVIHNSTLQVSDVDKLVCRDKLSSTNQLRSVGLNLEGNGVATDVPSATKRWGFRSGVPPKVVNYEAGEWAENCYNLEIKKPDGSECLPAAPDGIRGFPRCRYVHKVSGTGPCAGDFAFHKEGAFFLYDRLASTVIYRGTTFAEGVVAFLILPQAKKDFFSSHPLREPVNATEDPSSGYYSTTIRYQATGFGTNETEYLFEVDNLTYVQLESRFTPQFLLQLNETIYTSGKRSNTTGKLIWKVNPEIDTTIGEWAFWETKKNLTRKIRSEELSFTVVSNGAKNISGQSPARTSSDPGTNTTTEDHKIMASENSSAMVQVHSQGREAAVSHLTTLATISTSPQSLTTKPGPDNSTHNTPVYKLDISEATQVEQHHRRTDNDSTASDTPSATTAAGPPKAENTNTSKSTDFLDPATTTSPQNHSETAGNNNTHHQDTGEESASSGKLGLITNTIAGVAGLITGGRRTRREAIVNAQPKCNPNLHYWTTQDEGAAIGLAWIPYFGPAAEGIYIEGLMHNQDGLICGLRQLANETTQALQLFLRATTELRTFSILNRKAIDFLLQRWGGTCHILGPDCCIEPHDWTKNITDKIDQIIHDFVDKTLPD
UniProt Q66799, residues 34-638: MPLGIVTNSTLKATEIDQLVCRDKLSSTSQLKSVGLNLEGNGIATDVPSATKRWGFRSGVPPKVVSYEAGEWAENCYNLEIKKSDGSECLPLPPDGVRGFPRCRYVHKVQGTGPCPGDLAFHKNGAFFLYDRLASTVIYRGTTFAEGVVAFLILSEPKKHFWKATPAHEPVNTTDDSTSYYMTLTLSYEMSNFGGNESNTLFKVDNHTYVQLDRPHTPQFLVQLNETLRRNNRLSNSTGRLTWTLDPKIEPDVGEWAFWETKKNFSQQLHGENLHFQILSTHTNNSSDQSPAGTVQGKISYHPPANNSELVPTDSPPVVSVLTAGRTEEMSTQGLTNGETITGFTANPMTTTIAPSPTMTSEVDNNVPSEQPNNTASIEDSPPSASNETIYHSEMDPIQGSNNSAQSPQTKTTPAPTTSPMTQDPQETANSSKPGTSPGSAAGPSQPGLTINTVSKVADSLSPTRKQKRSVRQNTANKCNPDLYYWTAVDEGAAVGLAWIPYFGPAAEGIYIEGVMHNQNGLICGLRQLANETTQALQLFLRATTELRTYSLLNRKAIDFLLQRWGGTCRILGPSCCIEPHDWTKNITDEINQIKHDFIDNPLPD

Substitutions are numbered along the chain they refer to. Results are given in words; binding and its absence hold for the method and conditions named. Some binding calls cover weakened binding; strength is not graded here.

For assay [1], the target named is EBOV glycoprotein (purified EBOV GP) (Ebola virus (EBOV)) (UniProt Q05320). Put plainly: Western blot, denatured glycoprotein (data not shown). (Immunoblotting shows a protein as a band on a membrane.)
In assay [2] the target is RESTV glycoprotein (Reston virus (RESTV)) (UniProt Q66799). The assay is described as above.

B1: macaque monoclonal antibody FVM09 (antibody, V domains shown)
VH: EVQLVQSGAEVKRPGESLTISCKTSGYSFTDSWVAWVRQMPGKGLEWLGSIYPGDSETKYNPSFQGHVTISADKSVTTTYLKWSSLKASDTATYYCVKGSETWGQGVLVTVSS
VL: QLVLTQPASLSASPGASASLTCTFSGGINVAGYNILWYQQKAGSPPRYLLRYKSDSTKDQGSGVPSRFSGSKDASANTGILRISGLQSEDEADYYCAIGHSSGWIFGGGTRLTVL
Take B1: the binding entry in assay [1] and in assay [2] was “binds” each time.

B2: macaque monoclonal antibody FVM11 (antibody, V domains shown)
VH: B1 VH
VL: B1 VL with Q1N, L2F, V3M
As to B2, the binding result in assay [1] and in assay [2] was “binds” throughout.
